Results: the supplement of paper PMC10849652
The other results are listed elsewhere or left out. Residues, ends and D or L forms follow the SMILES beside them. *: point of attachment. Cbz = O=C(OCc1ccccc1)*

The chains behind the UniProt entries cited, without tags or fusion partners. Where a name states a change or a piece, a line headed by the entry shows the natural chain unless it says otherwise.
UniProt Q7LG56, whole entry, looked up: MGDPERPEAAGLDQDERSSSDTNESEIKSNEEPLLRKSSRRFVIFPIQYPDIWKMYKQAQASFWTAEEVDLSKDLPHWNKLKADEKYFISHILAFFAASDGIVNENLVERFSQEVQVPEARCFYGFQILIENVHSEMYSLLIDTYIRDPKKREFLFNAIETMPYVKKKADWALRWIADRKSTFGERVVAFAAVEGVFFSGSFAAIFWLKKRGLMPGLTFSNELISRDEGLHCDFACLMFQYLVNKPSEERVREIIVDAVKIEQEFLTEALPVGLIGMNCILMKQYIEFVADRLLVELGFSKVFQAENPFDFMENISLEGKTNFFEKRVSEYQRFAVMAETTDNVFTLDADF
UniProt P23443: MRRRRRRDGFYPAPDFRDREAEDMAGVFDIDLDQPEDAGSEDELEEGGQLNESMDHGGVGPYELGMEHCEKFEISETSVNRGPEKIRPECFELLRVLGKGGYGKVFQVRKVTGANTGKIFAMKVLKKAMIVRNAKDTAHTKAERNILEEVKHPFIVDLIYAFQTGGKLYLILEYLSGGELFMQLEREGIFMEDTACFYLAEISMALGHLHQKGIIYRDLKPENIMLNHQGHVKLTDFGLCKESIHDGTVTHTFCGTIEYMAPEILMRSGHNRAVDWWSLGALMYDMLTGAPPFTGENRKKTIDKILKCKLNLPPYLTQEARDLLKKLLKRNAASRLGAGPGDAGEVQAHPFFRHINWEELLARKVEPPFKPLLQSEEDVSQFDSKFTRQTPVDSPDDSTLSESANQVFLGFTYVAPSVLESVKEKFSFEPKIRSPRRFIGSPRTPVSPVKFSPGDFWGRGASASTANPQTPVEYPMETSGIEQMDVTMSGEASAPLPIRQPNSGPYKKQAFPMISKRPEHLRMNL
UniProt Q15349, whole entry, looked up: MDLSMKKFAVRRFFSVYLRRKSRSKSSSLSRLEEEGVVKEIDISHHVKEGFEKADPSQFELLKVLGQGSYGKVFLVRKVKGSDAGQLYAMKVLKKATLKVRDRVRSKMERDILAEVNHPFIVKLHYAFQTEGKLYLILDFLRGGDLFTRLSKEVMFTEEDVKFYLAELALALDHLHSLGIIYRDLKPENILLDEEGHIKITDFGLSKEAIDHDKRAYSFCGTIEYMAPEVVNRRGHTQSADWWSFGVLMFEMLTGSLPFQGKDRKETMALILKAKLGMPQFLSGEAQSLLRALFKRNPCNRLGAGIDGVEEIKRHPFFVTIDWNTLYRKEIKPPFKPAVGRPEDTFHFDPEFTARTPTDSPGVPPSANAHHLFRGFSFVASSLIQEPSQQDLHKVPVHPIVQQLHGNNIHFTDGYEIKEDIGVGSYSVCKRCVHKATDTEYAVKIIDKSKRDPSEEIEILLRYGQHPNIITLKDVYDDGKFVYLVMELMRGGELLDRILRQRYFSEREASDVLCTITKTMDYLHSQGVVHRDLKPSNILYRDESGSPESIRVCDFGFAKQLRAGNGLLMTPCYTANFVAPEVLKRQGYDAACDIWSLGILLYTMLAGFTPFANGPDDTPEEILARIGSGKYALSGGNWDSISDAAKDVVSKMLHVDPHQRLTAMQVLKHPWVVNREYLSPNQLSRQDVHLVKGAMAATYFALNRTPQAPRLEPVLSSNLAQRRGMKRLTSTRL
UniProt Q9NQG5: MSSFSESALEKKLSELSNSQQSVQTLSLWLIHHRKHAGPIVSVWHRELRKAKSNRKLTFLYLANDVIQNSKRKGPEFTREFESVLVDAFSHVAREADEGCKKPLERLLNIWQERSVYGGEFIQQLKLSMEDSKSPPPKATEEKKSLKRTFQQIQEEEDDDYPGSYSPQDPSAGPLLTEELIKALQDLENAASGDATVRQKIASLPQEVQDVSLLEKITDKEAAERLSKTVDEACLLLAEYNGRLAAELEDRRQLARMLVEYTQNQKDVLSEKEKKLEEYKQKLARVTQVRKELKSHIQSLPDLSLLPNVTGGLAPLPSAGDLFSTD
UniProt Q5VZM2, whole entry, looked up: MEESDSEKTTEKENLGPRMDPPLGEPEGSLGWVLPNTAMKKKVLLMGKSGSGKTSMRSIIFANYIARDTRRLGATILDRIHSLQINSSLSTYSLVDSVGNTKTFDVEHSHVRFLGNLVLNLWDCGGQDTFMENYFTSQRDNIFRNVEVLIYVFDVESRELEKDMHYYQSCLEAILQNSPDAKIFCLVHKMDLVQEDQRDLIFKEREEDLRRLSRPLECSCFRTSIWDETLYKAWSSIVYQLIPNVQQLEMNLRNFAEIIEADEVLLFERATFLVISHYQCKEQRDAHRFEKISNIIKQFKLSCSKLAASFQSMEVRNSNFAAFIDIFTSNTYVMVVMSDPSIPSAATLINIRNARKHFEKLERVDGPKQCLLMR
UniProt Q9H4A4: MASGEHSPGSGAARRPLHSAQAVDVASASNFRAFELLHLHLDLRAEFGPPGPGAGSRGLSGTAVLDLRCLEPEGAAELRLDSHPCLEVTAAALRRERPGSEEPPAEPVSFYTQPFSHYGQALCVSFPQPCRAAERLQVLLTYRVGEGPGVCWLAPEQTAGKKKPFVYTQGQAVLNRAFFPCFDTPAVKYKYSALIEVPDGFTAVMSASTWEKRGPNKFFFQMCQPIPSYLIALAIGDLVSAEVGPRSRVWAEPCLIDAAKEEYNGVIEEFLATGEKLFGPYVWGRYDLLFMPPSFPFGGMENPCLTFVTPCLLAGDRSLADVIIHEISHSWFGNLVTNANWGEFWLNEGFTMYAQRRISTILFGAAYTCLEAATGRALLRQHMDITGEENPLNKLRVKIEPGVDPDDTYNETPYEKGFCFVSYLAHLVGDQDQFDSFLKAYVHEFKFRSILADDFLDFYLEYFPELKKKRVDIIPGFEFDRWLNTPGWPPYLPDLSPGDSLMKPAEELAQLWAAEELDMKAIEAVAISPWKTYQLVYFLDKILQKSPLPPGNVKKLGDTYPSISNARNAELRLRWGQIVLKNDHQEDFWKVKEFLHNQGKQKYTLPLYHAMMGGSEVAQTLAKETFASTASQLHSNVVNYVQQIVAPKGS
UniProt P62070: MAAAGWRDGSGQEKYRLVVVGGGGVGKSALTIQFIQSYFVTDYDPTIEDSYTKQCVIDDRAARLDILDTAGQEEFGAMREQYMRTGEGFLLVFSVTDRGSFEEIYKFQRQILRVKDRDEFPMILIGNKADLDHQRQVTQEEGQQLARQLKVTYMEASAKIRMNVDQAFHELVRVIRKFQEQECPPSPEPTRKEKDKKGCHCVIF
UniProt Q9P2E9: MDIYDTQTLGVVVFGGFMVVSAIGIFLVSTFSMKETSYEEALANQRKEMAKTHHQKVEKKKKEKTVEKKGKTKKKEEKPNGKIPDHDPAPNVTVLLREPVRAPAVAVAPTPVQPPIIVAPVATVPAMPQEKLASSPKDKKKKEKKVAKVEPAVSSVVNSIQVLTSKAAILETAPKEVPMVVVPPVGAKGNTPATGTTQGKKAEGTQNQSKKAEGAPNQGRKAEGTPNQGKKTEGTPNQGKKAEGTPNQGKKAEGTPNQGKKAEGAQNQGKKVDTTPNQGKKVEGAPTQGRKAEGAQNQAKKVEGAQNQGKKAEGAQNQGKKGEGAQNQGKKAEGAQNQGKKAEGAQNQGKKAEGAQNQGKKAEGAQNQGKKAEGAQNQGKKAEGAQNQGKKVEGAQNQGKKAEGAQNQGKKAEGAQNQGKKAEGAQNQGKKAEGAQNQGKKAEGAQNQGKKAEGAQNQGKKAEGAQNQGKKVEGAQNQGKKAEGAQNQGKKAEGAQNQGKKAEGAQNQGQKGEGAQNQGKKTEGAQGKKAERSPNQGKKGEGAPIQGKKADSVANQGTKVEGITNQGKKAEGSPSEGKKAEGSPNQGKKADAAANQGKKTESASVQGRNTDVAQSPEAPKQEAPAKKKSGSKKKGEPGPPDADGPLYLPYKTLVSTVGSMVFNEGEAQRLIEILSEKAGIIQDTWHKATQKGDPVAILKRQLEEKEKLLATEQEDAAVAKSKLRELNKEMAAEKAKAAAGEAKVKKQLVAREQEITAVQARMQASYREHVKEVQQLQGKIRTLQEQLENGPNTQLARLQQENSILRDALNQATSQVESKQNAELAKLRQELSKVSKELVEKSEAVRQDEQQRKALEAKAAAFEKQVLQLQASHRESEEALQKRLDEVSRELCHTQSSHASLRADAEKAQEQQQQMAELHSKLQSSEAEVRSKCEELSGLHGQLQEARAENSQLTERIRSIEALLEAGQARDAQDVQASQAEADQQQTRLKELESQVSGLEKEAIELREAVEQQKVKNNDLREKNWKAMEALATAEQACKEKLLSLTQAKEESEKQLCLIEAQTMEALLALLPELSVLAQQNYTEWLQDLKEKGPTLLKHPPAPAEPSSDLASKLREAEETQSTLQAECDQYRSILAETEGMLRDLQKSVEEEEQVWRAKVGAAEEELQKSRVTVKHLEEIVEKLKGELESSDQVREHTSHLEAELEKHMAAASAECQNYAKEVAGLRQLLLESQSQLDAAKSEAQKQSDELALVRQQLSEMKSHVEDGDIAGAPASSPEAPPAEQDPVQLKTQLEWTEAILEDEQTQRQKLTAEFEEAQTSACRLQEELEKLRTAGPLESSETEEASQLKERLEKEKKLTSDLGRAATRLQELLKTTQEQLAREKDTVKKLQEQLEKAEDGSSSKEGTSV

Assays:
Assay in all cases: log2 fold change, soluble protein after heating vs DMSO (PISA); higher = thermal stabilisation; K562 cells, 10 uM, 30 min; active = over 0.2 and 3.5 SD of the protein, either way, in both replicates (recomputed)
erlotinib = compound: C#Cc1cccc(Nc2ncnc3cc(OCCOC)c(OCCOC)cc23)c1 [erlotinib]
Method in brief: (§1)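 K562 cells at 2×10^6 cells/mL were exposed to 10 μM compound for 30 min, then aliquots were heated for 3 min across 48°C-58°C, pooled, and extracted in PBS containing 0.5% NP-40 at 4°C. The supernatant after 21,000xg for 90 min was taken as soluble protein and measured by TMTpro 16plex LC-MS/MS with channel sums equalised. Thermal stability is reported relative to control samples, with values from duplicates. Fold changes are given on a log2 scale.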

[1] = compound: C/C(=N\NC(=O)C1=CC(=CC=C1)S(=O)(=O)N2CCOCC2)/C3=C(C=CC(=C3)Cl)O
Method in brief: as §1

[2] = compound: C1=CC(=C(C=C1Cl)C2=NC3=NC=CN=C3C(=N2)NC4=CC=NC=C4)F
Method in brief: as §1

[3] = compound: C1=CC(=CC=C1C2=NC3=C(N2)C=C(C=C3)C(=O)N)OC4=CC=C(C=C4)Cl
Method in brief: as §1

[4] = compound: C1=CC2=C(C=CC(=C2)/C=C\3/C(=O)NC(=NCC4=CC=CS4)S3)N=C1
Method in brief: as §1

[5] = compound: C1=CC2=NC=CN=C2C=C1/C=C/3\C(=O)NC(=O)S3
Method in brief: as §1

[6] = compound: C1=CC=C(C=C1)C2=NC(=C(N2)C3=CC=NC=C3)C4=CC(=C(C=C4)Cl)O
Method in brief: as §1

[7] = compound: C1=CC=C2C(=C1)C3=NNC4=CC=CC(=C43)C2=O
Method in brief: as §1

[8] = compound: C1CCN(C1)C(=O)NC2=CC=CC(=C2)NC3=NC=C(C(=N3)NCCC4=CN=CN4)Br
Method in brief: as §1

[9] = compound: C1CN(CCC1(CC2=CC=C(C=C2)Cl)N)C3=NC=NC4=C3C=CN4
Method in brief: as §1

IRAK-1-4 Inhibitor I = compound: C1COCCN1CCN2C3=CC=CC=C3N=C2NC(=O)C4=CC(=CC=C4)[N+](=O)[O-] [IRAK-1-4 Inhibitor I]
Method in brief: as §1

ibrutinib = compound: C=CC(=O)N1CCC[C@@H](n2nc(-c3ccc(Oc4ccccc4)cc3)c3c(N)ncnc32)C1 [ibrutinib]
Method in brief: as §1

[10] = compound: CC(=O)c1cnc2ccc(-c3cc(Cl)c(O)c(Cl)c3)nc2c1N[C@H]1CC[C@H](CN(C)C)CC1
Method in brief: as §1

ralimetinib = compound: CC(C)(C)Cn1c(N)nc2ccc(-c3[nH]c(C(C)(C)C)nc3-c3ccc(F)cc3)nc21 [ralimetinib]
Method in brief: as §1

[11] = compound: CC(C)(O)CC(=O)NCCn1ccc2ncnc(Nc3ccc(Oc4cccc(C(F)(F)F)c4)c(Cl)c3)c21
Method in brief: as §1

[12] = compound: CC(C)C1=C2N=C(C=C(N2N=C1)NCC3=CC=CC=C3)NCCCCCCN
Method in brief: as §1

[13] = compound: CC(C)C[C@@H](C=O)NC(=O)[C@H](CC(C)C)NC(=O)[C@H](CC(C)C)NC(=O)OCc1ccccc1
Method in brief: as §1

pinometostat = compound: CC(C)N(C[C@H]1O[C@@H](n2cnc3c(N)ncnc32)[C@H](O)[C@@H]1O)[C@H]1C[C@@H](CCc2nc3cc(C(C)(C)C)ccc3[nH]2)C1 [pinometostat]
Method in brief: as §1

[14] = compound: CC1=C(C(CC(=O)N1)C2=CC=C(C=C2)C(F)(F)F)C(=O)NC3=C(C=C4C(=C3)C=NN4)F
Method in brief: as §1

[15] = compound: CC1=C(C2=C(C=C1)C(=O)C3=CC=CC=C3N2CCCN)C
Method in brief: as §1

Row | Target | log2 fold change (erlotinib) | log2 fold change [1] | log2 fold change [2] | log2 fold change [3] | log2 fold change [4] | log2 fold change [5] | log2 fold change [6] | log2 fold change [7] | log2 fold change [8] | log2 fold change [9] | log2 fold change (IRAK-1-4 Inhibitor I) | log2 fold change (ibrutinib) | log2 fold change [10] | log2 fold change (ralimetinib) | log2 fold change [11] | log2 fold change [12] | log2 fold change [13] | log2 fold change (pinometostat) | log2 fold change [14] | log2 fold change [15]
1 | RPS17 (UniProt P08708) | inactive: -0.145 | inactive: -0.083 | inactive: -0.285 | inactive: 0.06 | inactive: -0.057 | inactive: -0.024 | inactive: -0.024 | inactive: -0.017 | inactive: 0.023 | inactive: -0.099 | inactive: -0.095 | inactive: 0.057 | inactive: 0.035 | inactive: 0.1 | inactive: 0.084 | inactive: -0.013 | inactive: 0.08 | inactive: 0.077 | inactive: 0.006 | inactive: -0.41
2 | RPL34 (UniProt P49207) | inactive: -0.425 | inactive: -0.398 | inactive: -1.29 | inactive: 0.058 | inactive: -0.252 | inactive: -0.067 | inactive: -0.121 | inactive: 0.008 | inactive: 0.02 | inactive: -0.366 | inactive: -0.35 | inactive: 0.059 | inactive: 0.233 | inactive: 0.263 | inactive: 0.052 | inactive: 0.041 | inactive: 0.178 | inactive: 0.508 | inactive: 0.094 | inactive: -1.12
3 | RPS16 (UniProt P62249) | inactive: -0.166 | inactive: -0.108 | inactive: -0.258 | inactive: 0.049 | inactive: -0.075 | inactive: -0.043 | inactive: -0.049 | inactive: 0.002 | inactive: 0.025 | inactive: -0.2 | inactive: -0.137 | inactive: 0.036 | inactive: 0.054 | inactive: 0.032 | inactive: 0.011 | inactive: -0.02 | inactive: 0.035 | inactive: 0.102 |  | active: -0.6
4 | RRM2B isoform 6 (UniProt Q7LG56) | inactive: -0.015 | inactive: 0 | inactive: 0.008 | inactive: 0.012 | inactive: 0.099 | inactive: 0.008 | inactive: -0.094 | inactive: 0.022 | inactive: -0.009 | inactive: 0.043 | inactive: 0.019 | inactive: 0.025 | inactive: -0.057 | inactive: -0.022 | inactive: 0.024 | inactive: 0.069 | inactive: 0.013 | inactive: 0.05 | inactive: -0.016 | inactive: 0.023
5 | RPSA (UniProt P08865) | inactive: -0.039 | inactive: -0.063 | inactive: -0.045 | inactive: 0.012 | inactive: 0.009 | inactive: -0.002 | inactive: -0.046 | inactive: -0.013 | inactive: 0.084 | inactive: -0.098 | inactive: -0.032 | inactive: 0.004 | inactive: -0.018 | inactive: 0.026 | inactive: 0.018 | inactive: -0.017 | inactive: 0.025 | inactive: 0.019 | inactive: -0.006 | inactive: -0.046
6 | RPS6KB1 (UniProt P23443) | inactive: 0.004 | inactive: 0.024 | inactive: 0.037 | inactive: 0.009 | inactive: -0.007 | inactive: 0.106 | inactive: -0.002 | inactive: 0.006 | inactive: -0.014 | inactive: 0.118 | inactive: 0.073 | inactive: -0.005 | inactive: 0.107 | inactive: -0.032 | inactive: -0.064 | inactive: -0.051 | inactive: 0.091 | inactive: 0.028 | inactive: 0.054 | inactive: 0.024
7 | RPS6KA2 isoform 2 (UniProt Q15349) | inactive: 0.008 | inactive: 0.092 | inactive: -0.068 | inactive: 0.075 | inactive: 0.07 | inactive: 0.06 | inactive: -0.132 | active: -0.473 | inactive: -0.058 | inactive: -0.004 | inactive: 0.001 | inactive: -0.066 | inactive: -0.178 | active: -0.492 | inactive: -0.082 | inactive: -0.082 | inactive: 0.07 | inactive: 0.01 |  | inactive: 0.006
8 | RPS9 (UniProt P46781) | inactive: -0.099 | inactive: -0.05 | inactive: -0.384 | inactive: 0.024 | inactive: -0.069 | inactive: -0.011 | inactive: 0.047 | inactive: 0.002 | inactive: 0.102 | inactive: -0.172 | inactive: -0.1 | inactive: -0.025 | inactive: 0.108 | inactive: 0.125 | inactive: 0.047 | inactive: -0.025 | inactive: 0 | inactive: 0.206 |  | active: -0.585
9 | RPRD1B (UniProt Q9NQG5) | inactive: -0.065 | inactive: 0.086 | inactive: 0.036 | inactive: 0.028 | inactive: 0.063 | inactive: 0.052 | inactive: 0.042 | inactive: -0.005 | inactive: 0.009 | inactive: -0.046 | inactive: 0 | inactive: -0.021 | inactive: -0.017 | inactive: 0 | inactive: -0.06 | inactive: -0.018 | inactive: -0.028 | inactive: -0.038 |  | inactive: 0.104
10 | RPS3 (UniProt P23396) | inactive: -0.136 | inactive: -0.072 | inactive: -0.224 | inactive: 0.061 | inactive: -0.026 | inactive: -0.027 | inactive: -0.073 | inactive: -0.03 | inactive: 0.093 | inactive: -0.156 | inactive: -0.091 | inactive: 0.02 | inactive: 0.051 | inactive: 0.034 | inactive: 0.005 | inactive: -0.096 | inactive: 0.016 | inactive: 0.128 |  | active: -0.497
11 | RPL38 (UniProt P63173) | inactive: 0.024 | inactive: -0.05 | inactive: -0.148 | inactive: 0.026 | inactive: -0.102 | inactive: -0.025 | inactive: -0.027 | inactive: 0.026 | inactive: 0.033 | inactive: -0.106 | inactive: 0.014 | inactive: 0.01 | inactive: 0 | inactive: 0.043 | inactive: 0.113 | inactive: 0 | inactive: 0.124 | inactive: 0.07 |  | inactive: -0.026
12 | RRAGB (UniProt Q5VZM2) | inactive: -0.028 | inactive: 0.047 | inactive: 0.004 | inactive: 0.023 | inactive: -0.13 | inactive: 0 | inactive: 0.021 | inactive: 0.082 | inactive: -0.048 | inactive: 0.037 | inactive: 0.034 | inactive: 0.029 | inactive: 0.08 | inactive: 0.002 | inactive: -0.012 | inactive: -0.162 | inactive: 0.011 | inactive: 0.039 |  | inactive: 0.026
13 | RNPEP (UniProt Q9H4A4) | inactive: 0.053 | inactive: 0.053 | inactive: 0.053 | inactive: 0.007 | inactive: 0.009 | inactive: 0.019 | inactive: 0.036 | inactive: -0.008 | inactive: -0.004 | inactive: -0.016 | inactive: -0.004 | inactive: -0.018 | inactive: 0.02 | inactive: 0.011 | inactive: -0.055 | inactive: -0.182 | inactive: -0.021 | inactive: 0.018 |  | inactive: 0.137
14 | RPS2 (UniProt P15880) | inactive: -0.199 | inactive: -0.138 | inactive: -0.323 | inactive: 0.047 | inactive: -0.1 | inactive: -0.039 | inactive: -0.064 | inactive: -0.041 | inactive: 0.086 | inactive: -0.162 | inactive: -0.101 | inactive: 0.042 | inactive: 0.085 | inactive: 0.055 | inactive: 0.019 | inactive: -0.004 | inactive: 0.061 | inactive: 0.222 |  | active: -0.682
15 | RRAS2 isoform 4 (UniProt P62070) | inactive: 0.002 | inactive: -0.076 | inactive: -0.046 | inactive: 0.015 | inactive: -0.006 | inactive: 0.038 | inactive: -0.015 | inactive: -0.059 | inactive: -0.085 | inactive: 0.093 | inactive: 0.011 | inactive: 0.097 | inactive: -0.009 | inactive: -0.023 | inactive: 0.242 | inactive: 0.077 | inactive: 0.005 | inactive: -0.034 |  | inactive: 0.077
16 | RPS5 (UniProt P46782) | inactive: -0.149 | inactive: -0.087 | inactive: -0.193 | inactive: 0.038 | inactive: -0.047 | inactive: -0.045 | inactive: -0.003 | inactive: 0.008 | inactive: 0.022 | inactive: -0.125 | inactive: -0.137 | inactive: 0.045 | inactive: 0.083 | inactive: 0.103 | inactive: 0 | inactive: -0.015 | inactive: -0.019 | inactive: 0.091 |  | active: -0.551
17 | RRBP1 (UniProt Q9P2E9) | inactive: 0.01 | inactive: -0.178 | inactive: -0.678 | inactive: 0.109 | inactive: -0.133 | inactive: 0.054 | inactive: -0.09 | inactive: 0 | inactive: 0.131 | inactive: -0.048 | inactive: -0.094 | inactive: 0.034 | inactive: 0.188 | inactive: 0.226 | inactive: 0.191 | inactive: -0.064 | inactive: 0.212 | inactive: 0.388 | inactive: 0.079 | inactive: -0.519

Random excerpt: 2 records from the list
Row | Target | log2 fold change (erlotinib) | log2 fold change [1] | log2 fold change [2] | log2 fold change [3] | log2 fold change [4] | log2 fold change [5] | log2 fold change [6] | log2 fold change [7] | log2 fold change [8] | log2 fold change [9] | log2 fold change (IRAK-1-4 Inhibitor I) | log2 fold change (ibrutinib) | log2 fold change [10] | log2 fold change (ralimetinib) | log2 fold change [11] | log2 fold change [12] | log2 fold change [13] | log2 fold change (pinometostat) | log2 fold change [14] | log2 fold change [15]
5 | RPSA (UniProt P08865) | inactive: -0.039 | inactive: -0.063 | inactive: -0.045 | inactive: 0.012 | inactive: 0.009 | inactive: -0.002 | inactive: -0.046 | inactive: -0.013 | inactive: 0.084 | inactive: -0.098 | inactive: -0.032 | inactive: 0.004 | inactive: -0.018 | inactive: 0.026 | inactive: 0.018 | inactive: -0.017 | inactive: 0.025 | inactive: 0.019 | inactive: -0.006 | inactive: -0.046
13 | RNPEP (UniProt Q9H4A4) | inactive: 0.053 | inactive: 0.053 | inactive: 0.053 | inactive: 0.007 | inactive: 0.009 | inactive: 0.019 | inactive: 0.036 | inactive: -0.008 | inactive: -0.004 | inactive: -0.016 | inactive: -0.004 | inactive: -0.018 | inactive: 0.02 | inactive: 0.011 | inactive: -0.055 | inactive: -0.182 | inactive: -0.021 | inactive: 0.018 |  | inactive: 0.137
